# Assay results taken from PubChem BioAssay AID2685 (National Center for Advancing Translational Sciences (NCATS), 2010).
# The list shows a part of the results. Shown are side measurements of this screen, not its main read-out; they come without a call. Most of these compounds were active or inconclusive in the main read-out, so they are no random draw. Potencies come from curve fits of mixed quality, noted in brackets.
# Assay: qHTS Assay for Lipid Storage Modulators in Drosophila S3 Cells;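 on cell number change: cells counted by Cell Tracker Red CMTPX staining in the red channel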
# Settings: BODIPY lipid droplet fluorescence, 18-24 h; for cell number change: measured here: cell count max response, cells fed with added oleic acid
# Summary of the method: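 Laser-scanning cytometry quantifies lipid droplet accumulation (500–530 nm total intensity; droplet/cell object ratio) in oleic acid-fed (400 uM added) Drosophila S3 cells treated with a concentration series. 20 uM Triacsin C defined 100% inhibition.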
# [1] = measured here: lipid fluorescence (Fed channel) AC50, cells fed with added oleic acid
# [2] = measured here: cell number channel AC50, cells fed with added oleic acid
Structure (SMILES),cell number change [%],AC50 [1],AC50 [2]
O=C(CCNS(=O)(=O)c1ccc2c(c1)CCC(=O)N2)Nc1ccc(F)c(F)c1,11.2,"1.84 µM [falling, single point]",
COc1ccccc1-n1c(-c2ccco2)n[nH]c1=S,8.51,,
O=C(NCCc1ccccc1)C(c1ccc(F)cc1)N(C(=O)c1csnn1)C1CC1 (stereo unspecified),-9.52,"3.26 µM [rising, single point]",
CSc1ccccc1NC(=O)CSc1nnc(Cc2ccccc2)o1,7.69,,
C/C(=N\NC(=O)Cc1ccccc1)c1ccc(Br)s1,-14.2,"29.1 µM [falling, single point]",
Cc1ccc(C)c(OCc2cc(C(=O)N3CC[C@@H]4CCCC[C@H]4C3)no2)c1,-40.4,,"18.4 µM [falling, single point]"
O=C(CCC1CCCN(C(=O)CCC(F)(F)F)C1)NCc1ccc(F)c(F)c1 (stereo unspecified),-7.07,"0.651 µM [rising, full curve]",
Nn1c(-c2cccs2)nc2sc3c(c2c1=O)CCCC3,-25.7,"3.66 µM [rising, single point]",
O=C(CN1C(=O)NC2(CCCC2)C1=O)N1CCN(S(=O)(=O)c2ccccc2[N+](=O)[O-])CC1,1.39,"3.26 µM [falling, single point]",
CC(C)c1ccccc1NC(=S)NC1CCN(Cc2ccccc2)CC1,,"0.206 µM [rising, full curve, poor fit]",
Cc1ncc([N+](=O)[O-])n1CC(=O)Nc1ccc(F)c(Cl)c1,0.945,"29.1 µM [rising, single point]",
COc1ccc(C(=O)NCC(=O)Nc2ccccc2)cc1OC,49.1,"29.1 µM [rising, single point]","29.1 µM [rising, single point]"
CCc1ccc(NC(=O)CSc2nc3c(c(=O)n(C)c(=O)n3C)n2C)cc1,,"1.3 µM [rising, full curve, poor fit]",
CSc1nnc(CCNC(=O)OC(C)(C)C)o1,8.07,,"0.411 µM [falling, full curve]"
Cc1c(CCC(=O)O)c(=O)n2c([nH]c3ccccc32)c1C#N,-45.4,"2.91 µM [falling, full curve]","0.103 µM [falling, full curve, poor fit]"
COc1ccc2cc3c(N)nn(C(=O)Cc4ccccc4OC)c3nc2c1,,"0.291 µM [rising, full curve]","0.326 µM [rising, full curve]"
COCc1c(C(=O)Nc2ccc(Cl)cc2F)oc2ccccc12,2.32,"4.11 µM [rising, single point]",
O=C(NCc1ccco1)C1CC(c2cccc([N+](=O)[O-])c2)=NO1 (stereo unspecified),8.06,"29.1 µM [rising, single point]",
O=C(NC(=S)Nc1ccc2oc(=O)ccc2c1)c1cccc(Cl)c1,16.1,"0.731 µM [falling, single point]",

Structure (SMILES),cell number change [%],AC50 [1],AC50 [2]
COc1cc(NC(=O)N[C@H](C(=O)O)C(C)C)cc(OC)c1,,"1.3 µM [falling, full curve]",
CC(=O)Nc1ccc(-c2cc(C(=O)O)c3ccc(C)cc3n2)cc1,-3.93,,
COc1ccc(CNc2nc(-c3ccccc3)nn2C(=O)c2cccs2)cc1,,"1.84 µM [rising, partial curve]","0.651 µM [rising, partial curve, poor fit]"
CC(=O)c1cccc(N(CC(=O)NC2CCCCC2)C(=O)Cn2nnc(-c3ccccc3)n2)c1,-19.2,"0.00411 µM [falling, full curve, poor fit]","7.31 µM [falling, single point]"
Cc1ccc(C(=O)NCC(=O)N(C)Cc2cccc(F)c2)s1,150,"5.17 µM [rising, full curve]","18.4 µM [rising, single point]"
Cc1ccc(C)c(NC(=O)COC(=O)c2cccc3c2C(=O)c2ccccc2C3=O)c1,25.8,"0.82 µM [rising, full curve]",
CC(=O)N1CCOc2ccc(S(=O)(=O)N3CCC(C)CC3)cc21,11.3,"0.13 µM [falling, full curve, poor fit]",
C[C@H](NC(=O)c1nc[nH]c1C(=O)NC1CCN(C(=O)OC(C)(C)C)CC1)C(=O)OC(C)(C)C,-25.4,"0.82 µM [falling, full curve, poor fit]",
COc1ccc(CCC(=O)O)c(O)c1,-15.4,"3.66 µM [falling, full curve]",
O=C(Nc1ccc(N2CCN(c3ncccc3C(F)(F)F)CC2)nc1)c1cccs1,-53.8,"29.1 µM [falling, single point]","29.1 µM [falling, single point]"
CCc1ccc2[nH]c(=O)c(CN(Cc3ccco3)C(=S)NCC3CCCO3)cc2c1 (stereo unspecified),6.66,"0.00411 µM [rising, full curve, poor fit]",
Cc1ccc(S(=O)(=O)N2CCN(C(=O)COC(=O)CSc3ccccc3)CC2)c(C)c1,-0.962,"16.4 µM [rising, single point]",
CCOc1ccc2[nH]c(=O)c(C(c3nnnn3CC3CCCO3)N3CCc4ccccc4C3)cc2c1 (stereo unspecified),18.7,,"0.231 µM [rising, full curve, poor fit]"
O=[N+]([O-])c1cc(S(=O)(=O)N2CCOCC2)ccc1N1CCCC1,-29.1,"5.8 µM [falling, full curve]",
CCOc1nnnc2c1sc1nc(N3CCOCC3)c3c(c12)CCCC3,67,"4.11 µM [rising, partial curve]","2.91 µM [rising, partial curve]"
O=C(c1cc(C(=O)N2CCOCC2)c2nc3ccccc3n2c1)c1ccccc1O,10.2,"6.51 µM [rising, single point]","0.0116 µM [rising, full curve, poor fit]"
CC#CCN1c2ccccc2[C@]23C[C@@H](C(=O)OC)N(C(=O)c4cc(C)oc4C)C2=NC(C(=O)OC)=C(C(=O)OC)[C@H]13,-71.5,"1.03 µM [falling, full curve]","0.82 µM [falling, full curve]"
CC(NC(=O)Cn1c(=O)oc2cc(S(=O)(=O)N3CCCC3)ccc21)c1ccccc1 (stereo unspecified),46.6,,
COc1cc(C(=O)Nc2cccc(S(=O)(=O)NCc3ccco3)c2)cc(OC)c1OC,23.9,"0.259 µM [rising, full curve, poor fit]",

# Filtered by structure, the entries above containing a tert-butyl group
Structure (SMILES),cell number change [%],AC50 [1],AC50 [2]
CSc1nnc(CCNC(=O)OC(C)(C)C)o1,8.07,,"0.411 µM [falling, full curve]"
C[C@H](NC(=O)c1nc[nH]c1C(=O)NC1CCN(C(=O)OC(C)(C)C)CC1)C(=O)OC(C)(C)C,-25.4,"0.82 µM [falling, full curve, poor fit]",

# (listing goes on)

Structure (SMILES),cell number change [%],AC50 [1],AC50 [2]
O=C(COc1cccc(Br)c1)Nc1ccc(N2CCOCC2)cc1N1CCOCC1,7.67,"0.092 µM [falling, full curve]","0.092 µM [falling, full curve]"
COc1ccccc1CNC(=O)CSc1nc(-c2ccccc2)cn1N,-4.21,"0.58 µM [rising, single point]",
CN(C)CCCNC(=O)c1ccc(-c2ccccc2)cc1,56.4,"0.082 µM [falling, full curve, poor fit]","0.0651 µM [falling, full curve, poor fit]"
O=C1CCCN1CCC(=O)N1CCCC(Nc2ccc(F)cc2)C1 (stereo unspecified),17.6,"6.51 µM [rising, partial curve, poor fit]",
CCc1nnc2n1N=C(c1ccc([N+](=O)[O-])cc1)CS2,-23.8,"18.4 µM [falling, single point]",
CC(C)Oc1ccc(CCc2nnc(SC(C)C(=O)O)n2-c2ccccc2)cc1 (stereo unspecified),-14,,
O=C(Cc1ccccc1F)Nc1ccc(S(=O)(=O)N2CCCCC2)cc1,,"6.51 µM [falling, single point]",
Cc1cc(NC(=O)CCc2ccc(C)o2)no1,-11.3,"23.1 µM [falling, single point]",
Cc1ccc(C)c(CN2CCC(CNC(=O)Nc3cccc(Cl)c3C)CC2)c1,,"1.84 µM [falling, partial curve, poor fit]",
CCOc1ccccc1C1C(C(=O)Nc2ccccc2OC)=C(C)Nc2nnnn21 (stereo unspecified),10.8,"9.2 µM [rising, partial curve]",
CCOc1ccc(C(C(=O)NCC2CCCO2)N(Cc2cccs2)C(=O)c2snc(C(N)=O)c2N)cc1 (stereo unspecified),,"29.1 µM [falling, single point]",
O=C(O)Cn1c(CC(=O)N2CCCC2)nc2ccccc21,-27.4,"0.731 µM [falling, full curve, poor fit]",
O=C(c1cccc([N+](=O)[O-])c1)N1CCCN(C(=O)c2cccc([N+](=O)[O-])c2)CC1,14.1,"1.03 µM [rising, partial curve, poor fit]",
CCS(=O)(=O)Nc1cc(C(=O)O)ccc1C,-31.9,,"1.16 µM [falling, partial curve, poor fit]"
N#CC1=C(SCc2ccc(C#N)cc2)N=C(N)C(c2nc(-c3ccccc3)cs2)C12CCCCC2 (stereo unspecified),,"3.66 µM [rising, single point]",
Cc1cc(C)c(S(=O)(=O)Nc2ccc(OCC(=O)O)cc2)c(C)c1,-37.2,"0.164 µM [falling, full curve, poor fit]","0.13 µM [falling, full curve, poor fit]"
CCOc1cccc2cc(-c3nnc(NCc4ccc5c(c4)OCO5)s3)c(=O)oc12,-6.45,"6.51 µM [falling, single point]","3.66 µM [falling, single point]"
c1cnc(N2CCN(Cc3ccc4c(c3)OCO4)CC2)cn1,81.1,,

# Some of the entries above, reformatted.
Structure (SMILES)	cell number change [%]	AC50 [1]	AC50 [2]
Cc1cc(NC(=O)CCc2ccc(C)o2)no1	-11.3	23.1 µM [falling, single point]	
Cc1ccc(C)c(CN2CCC(CNC(=O)Nc3cccc(Cl)c3C)CC2)c1		1.84 µM [falling, partial curve, poor fit]	
